According to patent US8309745B2, “Epigallocatechin dimers or trimers having lipase inhibitory activity and/or antioxidant activity” (Suntory Holdings Limited, priority 2004, dated 2012):
At least one structure is not confirmed: it was looked up by name or label, or the drawing left a doubt.

Assays:
[1] = Superoxide anion radical scavenging activity (hypoxanthine-xanthine oxidase reaction, ESR with DMPO); settings: O2- generated by hypoxanthine-xanthine oxidase, DMPO trapping agent
Procedure: The superoxide anion radical scavenging activity was measured by the method to be described in Example 5. Briefly, O2^− was generated by means of hypoxanthine-xanthine oxidase reaction and 5,5-dimethyl-1-pyrrolin-N-oxide was used as a trapping agent to perform measurement by ESR. Measurements were conducted in the presence or absence of compounds of the present invention and the results were expressed as IC50 or the amount of a sample that provided 50% suppression of O2^− generation.
Evaluation was made of the activity for scavenging superoxide anion radicals generated by hipoxanthine-xanthine oxidase reaction, a kind of active oxygen. […]
Among the ESR signals from DMPO-OOH, the signal of the lowest field strength was compared in height to the internal standard Mn^2+ signal and the ratio (S/M) was assumed to represent the amount of O2^− and the O2^− scavenging activity was calculated by the following formula: O2^− scavenging activity(%)=100−{100×(S/M in the presence of the sample)/(S/M in the absence of the sample)} Results: […]

swine pancreatic lipase = biological target: T1, swine pancreatic lipase (Sus scrofa, UniProt P00591); assay: Measurement of lipase inhibitory activity (4-UMO fluorescence assay); assay type: biochemical; settings: in words
T1 construct: purchased Sigma
T1 sequence (P00591 1-450): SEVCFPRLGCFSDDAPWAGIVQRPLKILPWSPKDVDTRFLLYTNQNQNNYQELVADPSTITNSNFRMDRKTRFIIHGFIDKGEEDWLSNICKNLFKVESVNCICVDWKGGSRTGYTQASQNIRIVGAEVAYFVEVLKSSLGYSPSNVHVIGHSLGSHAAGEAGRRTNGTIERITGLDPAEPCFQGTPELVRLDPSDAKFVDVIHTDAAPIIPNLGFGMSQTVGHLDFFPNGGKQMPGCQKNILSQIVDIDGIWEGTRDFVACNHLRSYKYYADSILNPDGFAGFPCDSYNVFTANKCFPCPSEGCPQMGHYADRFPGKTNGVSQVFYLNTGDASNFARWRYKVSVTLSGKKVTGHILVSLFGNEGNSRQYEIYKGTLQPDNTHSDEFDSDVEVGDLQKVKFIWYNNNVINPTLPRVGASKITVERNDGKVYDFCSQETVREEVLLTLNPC
Excerpt: Lipase inhibitory activity can be measured by any one of the lipase activity assays that are described in the prior applications mentioned in the Background Art. As for inhibitory activity against pancreatic lipase, an oleic ester of fluorescent 4-methylumbelliferone may be used as a substrate to measure the fluorescence from 4-methylumbelliferone that is formed by reaction with the lipase. The amount of a sample that provides 50% inhibition of lipase activity (IC50) may be substituted to express lipase inhibitory activity in accordance with the usual method.
For lipase activity measurement, an oleic ester of fluorescent 4-methylumbelliferone (4-UMO) was used as a substrate and the fluorescence from 4-methylumbelliferone formed by enzyme reaction was measured. […]
To start the enzyme reaction, 50 μl of buffered 4-UMO solution and 25 μl of distilled water (or an aqueous solution of sample) were loaded and mixed on a 96-well microplate and 25 μl of the buffered lipase solution was then added. After 30-minute reaction, 100 μl of 0.1 M citrate buffered solution (pH 4.2) was added to quench the reaction and the fluorescence from 4-methylumbelliferone (excitation wavelength: 355 nm; fluorescence wavelength: 460 nm), which was generated by the reaction, was measured with a fluorescence plate reader (Fluoroskan Asent CF: product of Labsystems). […]

O=C(O[C@@H]1Cc2c(cc(O)c(Cc3c(O)cc(O)c4c3O[C@H](c3cc(O)c(O)c(O)c3)[C@H](OC(=O)c3cc(O)c(O)c(O)c3)C4)c2O)O[C@@H]1c1cc(O)c(O)c(O)c1)c1cc(O)c(O)c(O)c1 [Oolong homobisflavan B (2), oolong homobisflavan B]
IC50 [1]: 8.1 µM
lipase inhibitory activity compared with EGCG (swine pancreatic lipase): potent lipase inhibitory activity compared with EGCG

O=C(O[C@@H]1Cc2c(O)cc(O)c(Cc3c(O)cc(O)c4c3O[C@H](c3cc(O)c(O)c(O)c3)[C@H](OC(=O)c3cc(O)c(O)c(O)c3)C4)c2O[C@@H]1c1cc(O)c(O)c(O)c1)c1cc(O)c(O)c(O)c1 [Oolong homobisflavan A (1), oolong homobisflavan A]
IC50 [1]: 7.9 µM
lipase inhibitory activity compared with EGCG (swine pancreatic lipase): potent lipase inhibitory activity compared with EGCG
